Here are results for one sequence from paper PMC9067507, “F/YGG-motif is an intrinsically disordered nucleic-acid binding motif”.

Test in all cases: MST
One series deals with T1, F/YGG WT peptide (human) (UniProt P22626).
T1 sequence (looked up): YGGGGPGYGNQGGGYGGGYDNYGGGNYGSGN
The settings on record: 10 mM MgCl2, RNA titrated; MST: 20 mM HEPES pH 7.5, 10 mM MgCl2, 0.05% Tween-20; 420 nM labelled U30 with protein titrated, or labelled peptide with RNA titrated; temperature not stated; residues 269-299; protein details: fluorescent label.

For series [1], the target named is T2, F/YGG Y to A peptide Y269A,Y276A,Y283A,Y287A,Y290A,Y295A (human) (UniProt P22626).
T2 sequence (looked up, limits assumed): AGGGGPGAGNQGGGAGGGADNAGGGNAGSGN
Conditions: 10 mM MgCl2, RNA titrated, binding detected but too weak to measure; MST: 20 mM HEPES pH 7.5, 10 mM MgCl2, 0.05% Tween-20; 420 nM labelled U30 with protein titrated, or labelled peptide with RNA titrated; temperature not stated; protein details: fluorescent label.

Series [2] addresses T3, F/YGG Y to F peptide Y269F,Y276F,Y283F,Y287F,Y290F,Y295F (human) (UniProt P22626).
T3 sequence (looked up, limits assumed): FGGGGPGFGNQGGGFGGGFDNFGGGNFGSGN
Conditions: 10 mM MgCl2, RNA titrated, text gives 10 uM; MST: 20 mM HEPES pH 7.5, 10 mM MgCl2, 0.05% Tween-20; 420 nM labelled U30 with protein titrated, or labelled peptide with RNA titrated; temperature not stated; protein details: fluorescent label.

The exact form of at least one protein or probe is not confirmed. For part of these data: A weaker result is weaker than the reference pair of the same experiment. For part of these data: At least one verdict was read from the data and is not stated in words by the source. Tags and fusion partners may be left off the protein sequences shown.

For orientation: Kd means the free concentration of one partner at which half of the binding sites on the other are occupied at equilibrium, for simple one-to-one binding. In the case of “UUUUUUUUUUUUUUUUUUUUUUUUUUUUUU [U30 (unlabelled, titrated against peptide)]”, the Kd with F/YGG WT peptide (human) stood at 31 µM; in series [2] it was 11 µM. In addition, in series [1], the binding result is “binds more weakly”.
